Assay results from PubChem BioAssay AID1487 (National Center for Advancing Translational Sciences (NCATS), 2009).
Where “and” joins values, the source holds several entries; their conditions need not be identical. Equal entries are not always repeated. This is one part of the list. Shown are side measurements of this screen, not its main read-out; they come without a call. The list favours compounds with an active or inconclusive main result. Words in brackets tell the shape of the fitted curve; partial curves, single points and poor fits give uncertain potencies.

Assay: qHTS Assay for Modulators of Lamin A Splicing
Details: HeLa LMNA splicing GFP/RFP minigene ratio, 48 h
Summary of the method: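 Read-out is the ratio of GFP to DsRed2 object intensity, acquired by 488 nm laser-scanning cytometry on HeLa lamin A-EGFP minigene reporter cells. Compound incubation 48 hrs at 37 °C in Opti-MEM with 2% FBS; DMSO 0.5% final.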

[1] = measured here: RFP viability control channel
[2] = measured here: GFP splicing reporter channel

| SMILES | AC50 [1] | AC50 [2] |
| --- | --- | --- |
| COc1cccc(Nc2ncnc3nc[nH]c23)c1 | 5.01 µM [rising, full curve, poor fit] | – |
| Cc1ccc(-c2cc(=O)c3cc(C)ccc3[nH]2)cc1 | 35.5 µM [rising, single point] | – |
| CN(C)C(=O)c1ccc(-c2nc(-n3ccnc3)c3ccccc3n2)cc1 | 20 µM [falling, single point] | 12.6 µM [falling, partial curve] |
| CC/C(=N\NC(=O)c1c[nH]c2ccccc12)c1cccs1 | 17.8 µM [rising, single point] | 22.4 µM [rising, single point] |
| CS(=O)(=O)Nc1cccc(-c2nc(Nc3ccncc3)c3ccccc3n2)c1 | 17.8 µM [falling, single point] | 12.6 µM [falling, partial curve] |
| Cc1ccc(OCC(=O)Nc2ccc(S(=O)(=O)N(Cc3ccccc3)c3ccccc3)cc2)cc1 | 20 µM [falling, partial curve, poor fit] | 22.4 µM [falling, partial curve, poor fit] |
| c1ccc(-c2nnnc3ccccc23)cc1 | 11.2 µM [rising, partial curve, poor fit] | – |
| Oc1ccc(N=Nc2n[nH]c(-c3ccccc3)n2)cc1 | 20 µM [rising, single point] | – |
| Cc1ccccc1C(=O)NCC(=O)NNC(=S)NC(=O)c1ccccc1C | 2 µM [falling, full curve, poor fit] | 3.16 µM [falling, partial curve, poor fit] |
| Cc1cccc(C(=O)Nc2ccccc2C(=O)OCc2cc(=O)n3nc(C4CC4)sc3n2)c1 | – | 0.251 µM [rising, full curve, poor fit] |
| COC(=O)c1sccc1NC(=O)CSc1nnnn1-c1ccccc1F | 25.1 µM [rising, single point] | 10 µM [rising, partial curve] |
| COCc1cc(C)nc2sc3c(=O)n(-c4cccc5ccccc45)nnc3c12 | – | 10 µM [falling, partial curve, poor fit] |
| CCOCCOC(=O)c1ccc(-n2cnc(C)n2)nc1 | 0.00501 µM [falling, full curve, poor fit] | 0.00447 µM [falling, full curve, poor fit] |
| O=C(C1CCN(c2nc3ccccc3[nH]2)CC1)N1CCN(c2cccc(Cl)c2)CC1 | 35.5 µM [rising, single point] | – |
| Cc1cc(C(C)(C)C)c(O)c(C)c1CC1=NCCN1 | 398 nM [falling, partial curve, poor fit] and 6.31 µM [falling, single point] | 3.16 nM [falling, full curve, poor fit] and 5.01 nM [falling, full curve, poor fit] |
| CC(=O)NC1=NN(C(C)=O)C(C)(c2ccccc2)S1 (stereo unspecified) | 2.82 µM [rising, full curve, poor fit] | – |
| Cc1cc([N+](=O)[O-])nn1CCCC(=O)Nc1cc(Oc2ccc(F)cc2)cc([N+](=O)[O-])c1 | 1.41 µM [rising, partial curve] | – |
| CN1CCN(c2ncc3nc(-c4ccc(Cl)cc4)c(=O)n(-c4ccccc4)c3n2)CC1 | 14.1 µM [falling, partial curve] | 28.2 µM [falling, single point] |
| O=C(CN1C(=O)CC(c2ccc(F)cc2)=Nc2ccccc21)NCc1ccccc1Cl | 22.4 µM [falling, partial curve] | 35.5 µM [falling, partial curve] |
| Cc1noc2ncnc(N3CCN(c4cccc(Cl)c4)CC3)c12 | 5.01 µM [rising, partial curve, poor fit] | – |
| CCCn1c(-c2cccs2)nc2ccccc21 | 0.0355 µM [rising, full curve, poor fit] | 0.0447 µM [rising, full curve, poor fit] |
| COc1cccc(/C=N/Nc2ncc(C(F)(F)F)cc2Cl)c1O | – | 35.5 µM [rising, single point] |
| O=S(=O)(c1cccc2nsnc12)N1CCCC1 | 3.55 µM [falling, full curve] | 2.82 µM [falling, full curve] |
| COc1ccc(-c2csc3ncnc(Cl)c23)cc1 | – | 12.6 µM [falling, partial curve, poor fit] |
| Cc1cc2c(ncn2C)c(NS(=O)(=O)c2ccc(F)cc2)c1C | 0.562 µM [rising, partial curve, poor fit] | – |
| CN(C)CCCNC(=O)C(=O)NCC1CCCO1 (stereo unspecified) | 31.6 µM [rising, single point] | 35.5 µM [rising, single point] |
| COc1ccc(-c2nnn(CC(=O)c3c[nH]c4ccccc34)n2)cc1OC | 31.6 µM [rising, single point] | – |
| CCOc1ccccc1C(=O)N[C@H](C(=O)Nc1nc2c(s1)CCCC2)C(C)C | 11.2 µM [rising, partial curve] | 10 µM [rising, partial curve] |

| SMILES | AC50 [1] | AC50 [2] |
| --- | --- | --- |
| COc1ccc(CNC(=O)c2cc(-c3ccc(OC)c(OC)c3)on2)cc1 | 35.5 µM [rising, single point] | – |
| Cc1ccc2cc(CN(Cc3ccco3)C(=O)c3cccs3)c(=O)[nH]c2c1 | 2.82 µM [rising, single point] | – |
| Cc1ccc(OCC(=O)Nc2ccccc2Sc2ccccc2)c([N+](=O)[O-])n1 | 17.8 µM [rising, single point] | 14.1 µM [rising, single point] |
| Nc1[nH]n2c(=O)c3c(nc2c1N=Nc1ccccc1)CCCC3 | 35.5 µM [falling, single point] | 25.1 µM [falling, single point] |
| CCN(c1ncnc2c1cnn2-c1cccc(Cl)c1)C1CCCCC1 | 7.08 µM [rising, partial curve, poor fit] | – |
| CCc1ccccc1N(C(C)=O)c1nc(CCl)cs1 | 0.00891 µM [falling, full curve] | – |
| O=S(=O)(Nc1ccc(-c2nnc(SCc3ccc(Cl)cc3)o2)cc1)c1ccccc1 | 8.91 µM [rising, partial curve] | – |
| O=C(Nc1ccc(F)cc1)c1nc[nH]c1C(=O)Nc1ccc([N+](=O)[O-])cc1 | 0.0631 µM [rising, full curve, poor fit] | – |
| O=C(NNC(=S)Nc1ccccc1)NNC(=S)Nc1ccccc1 | 5.62 µM [rising, partial curve, poor fit] | – |
| Cn1c(NC(=O)C[n+]2cc(-c3ccc(F)cc3)n3c2CCC3)cc(=O)n(C)c1=O | 15.8 µM [rising, single point] | 10 µM [rising, single point] |
| CC(=O)C1=C(O)C(=O)N(c2cc(C(C)(C)C)on2)C1c1ccc(Br)cc1 (stereo unspecified) | – | 35.5 µM [rising, single point] |
| COc1ccc2cnn(CCOc3cc(C)ccc3C(C)C)c(=O)c2c1OC | 22.4 µM [rising, partial curve] | 11.2 µM [rising, partial curve, poor fit] |
| COc1ccc(OC)c(NC(=O)COC(=O)c2cc3c(s2)CCC3)c1 | – | 6.31 µM [rising, single point] |
| COc1ccc(C(=O)Cc2ccc(OC)c(OC)c2)cc1 | 20 µM [rising, single point] | 20 µM [rising, single point] |
| C=CCn1c(=S)[nH]c2sc3c(c2c1=O)CCC3 | 20 µM [rising, single point] | – |
| CC(=O)c1cc(C#N)c(N(C)Cc2ccccc2)nc1C | – | 0.794 µM [falling, full curve, poor fit] |
| COc1ccc(-c2cccc(NS(=O)(=O)c3cc(C)ccc3OC)c2)nn1 | 0.0501 µM [falling, full curve] | 0.0251 µM [falling, full curve, poor fit] |
| CC[n+]1c(/C=C/N(C)c2ccccc2)oc2ccc(Cl)cc21 | 11.2 µM [rising, partial curve, poor fit] | – |
| C[N+]1=C(/C=C/Nc2ccccc2Cl)C(C)(C)c2ccccc21 | 14.1 µM [rising, partial curve] | 11.2 µM [rising, partial curve] |
| O=C(O)CCC(=O)Nc1cc(C(F)(F)F)cc(C(F)(F)F)c1 | – | 0.0501 µM [rising, full curve, poor fit] |
| Cc1cc(C(=O)Nc2c(C)nn(Cc3c(Cl)cccc3Cl)c2C)no1 | – | 31.6 µM [falling, single point] |
| COc1ccc(-c2ccc(SCC(=O)c3cccs3)nn2)cc1OC | 0.0141 µM [rising, full curve, poor fit] | – |
| CN(C)CCCN(Cc1cc2cc3c(cc2[nH]c1=O)OCO3)C(=S)Nc1ccccc1 | – | 22.4 µM [falling, single point] |
| Cc1cc[n+]2c3c(cccc13)CCC2 | 35.5 µM [rising, single point] | – |
| Cc1ccc(NC(=O)CSCC(=O)Nc2ccc(N3CCOCC3)c(Cl)c2)cc1 | 0.562 µM [falling, full curve] | – |
| CCOC(=O)c1cnc2ccc(C)cc2c1Nc1ccc(N2CCOCC2)cc1 | 35.5 µM [rising, single point] | – |
| CCn1c(NC(=O)c2ccco2)c(-c2ccccc2Cl)c(=O)c2ccccc21 | 31.6 µM [rising, single point] | – |

Single entries from the entries so far.
Entry of `CCCn1c(-c2cccs2)nc2ccccc21` under AC50 [1]: 0.0355 µM [rising, full curve, poor fit]
Entry of `C[N+]1=C(/C=C/Nc2ccccc2Cl)C(C)(C)c2ccccc21` under AC50 [1]: 14.1 µM [rising, partial curve]
Entry of `CC/C(=N\NC(=O)c1c[nH]c2ccccc12)c1cccs1` under AC50 [2]: 22.4 µM [rising, single point]
Entry of `CS(=O)(=O)Nc1cccc(-c2nc(Nc3ccncc3)c3ccccc3n2)c1` under AC50 [1]: 17.8 µM [falling, single point]
Entry of `CN(C)CCCN(Cc1cc2cc3c(cc2[nH]c1=O)OCO3)C(=S)Nc1ccccc1` under AC50 [2]: 22.4 µM [falling, single point]
